Taken from: PubChem BioAssay AID1259308 (NCATS, 2017)
The whole screen tested about 59,000 reagents; below is an unselected part. About 1,510 of them (2.6%) count as active. 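Calls use total luciferase alone and ignore viability, so some active siRNAs may act by altering cell number.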 The numbers tell different reagents against one gene apart.

- Assay: 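Knock-downs that increase output of a recombinant reporter protein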 (primary screen)
- Cells: human HEK293 embryonic kidney cells stably expressing firefly luciferase (HEK-CMV-Luc2-Hygro)
- Reagent: single siRNA against human genes, 0.8 pmol siRNA per well
- Timing: 72 h
- Measured: 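Reporter luminescence and viable-cell signal on separate replicate plates, given as percent of non-targeting control and median/MAD z-scores, plus per-cell luciferase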
- Scale: total luciferase, z-score and total luciferase, % of control: higher = more reporter protein produced; luciferase per cell, z-score: higher = more reporter output per viable cell; viable cells, % of control: higher = more viable cells
- Call rule: 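An siRNA counts as active if its total luciferase robust z-score exceeds 3; genes with two or more such siRNAs out of three were retested with fresh siRNAs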
- Calls: active = raised luciferase; inactive = no rise

no.	gene	reagent no.	total luciferase, z-score	total luciferase, % of control	luciferase per cell, z-score	viable cells, % of control	call
1	GOLGA6L2 (golgin A6 family like 2)	1	2.93	140	1.89	95.3	inactive
2	GOLGA6L2 (golgin A6 family like 2)	2	1.64	114	1.83	78.9	inactive
3	GOLGA6L2 (golgin A6 family like 2)	3	1.39	110	1.59	80.6	inactive
4	LRRC39 (leucine rich repeat containing 39)	1	1.02	102	1.46	77.7	inactive
5	LRRC39 (leucine rich repeat containing 39)	2	0.674	95.3	1.09	79.8	inactive
6	LRRC39 (leucine rich repeat containing 39)	3	1.14	105	1.64	75.8	inactive
7	FASTKD3 (FASTK mitochondrial RNA regulator 3)	1	0.259	87	0.728	80.3	inactive
8	FASTKD3 (FASTK mitochondrial RNA regulator 3)	2	-0.555	70.8	-0.107	81.4	inactive
9	FASTKD3 (FASTK mitochondrial RNA regulator 3)	3	-0.227	77.4	-0.0673	88	inactive

The list goes on; the last 2 above are carried over.
no.	gene	reagent no.	total luciferase, z-score	total luciferase, % of control	luciferase per cell, z-score	viable cells, % of control	call
8	FASTKD3 (FASTK mitochondrial RNA regulator 3)	2	-0.555	70.8	-0.107	81.4	inactive
9	FASTKD3 (FASTK mitochondrial RNA regulator 3)	3	-0.227	77.4	-0.0673	88	inactive
10	MRS2 (magnesium transporter MRS2)	1	-0.0209	81.5	-1	119	inactive
11	MRS2 (magnesium transporter MRS2)	2	0.00608	82	-0.0274	92.3	inactive
12	MRS2 (magnesium transporter MRS2)	3	0.896	99.7	0.672	93.3	inactive
13	PRMT1 (protein arginine methyltransferase 1)	1	-0.849	65	-0.233	77.2	inactive
14	PRMT1 (protein arginine methyltransferase 1)	2	-0.706	67.9	-1.05	100	inactive
15	PRMT1 (protein arginine methyltransferase 1)	3	0.698	95.8	0.927	83.8	inactive
16	TMEM82 (transmembrane protein 82)	1	0.107	84	0.495	82.4	inactive
17	TMEM82 (transmembrane protein 82)	2	0.154	85	0.232	89.3	inactive
18	TMEM82 (transmembrane protein 82)	3	0.934	100	2.01	66	inactive
19	DDHD2 (DDHD domain containing 2)	1	1.15	105	1.88	71.4	inactive
20	DDHD2 (DDHD domain containing 2)	2	0.669	95.2	0.545	92.2	inactive
21	DDHD2 (DDHD domain containing 2)	3	-0.38	74.3	-1.17	113	inactive
22	ZNF763 (zinc finger protein 763)	1	-0.149	78.9	0.316	81.1	inactive
23	ZNF763 (zinc finger protein 763)	2	-0.856	64.9	0.202	68.7	inactive
24	ZNF763 (zinc finger protein 763)	3	0.908	100	1.18	81.9	inactive
